Data from article PMC12670160, “A drug-repurposing screen of FDA- and EMA-approved drugs identifies two NF-κB inhibitors active against eumycetoma” (Journal of Antimicrobial Chemotherapy, 2025).
Structures can show the parent of a compound that is named as a salt. Where two headings read alike, the source gives them in different places. Hit rate of the full screen: of about 5,300 compounds, about 130 (2.5%) showed an effect of 50% or more. This is one part of the list.

Tested on: M. mycetomatis strain mm55
Conditions: primary screen, metabolic activity vs growth control, 96 h, 2 µM, inhibitor

Structure (SMILES)	% viability	% viability (Madurella mycetomatis metabolic activity at 2µM (%))
CC(C)OC(=O)C(C)(C)Oc1ccc(C(=O)c2ccc(Cl)cc2)cc1 [ONC0003204, fenofibrate]	122.8%	
OCCOc1ccc(/C(=C(/CCCl)c2ccccc2)c2ccccc2)cc1 [ONC0005170, ospemifene]	96.53%	
C=C1CC/C=C(\C)CC[C@@H]2[C@@H]1CC2(C)C [ONC0002179, gcaryophyllene]	84.29%	
Cc1c(O)c(=O)n(-c2ccccc2)n1C [ONC0002305, 4hydroxyphenazone]	52.96%	
NCCCC[C@H](NC(=O)[C@@H](Cc1cc(Br)c(O)c(Br)c1)NC(=O)N1CCC(N2Cc3ccccc3NC2=O)CC1)C(=O)N1CCN(c2ccncc2)CC1 [ONC0002023, olcegepant]	109.7%	
Nc1nc(=O)n([C@H]2C[C@H](O)[C@@H](CO)O2)cc1Cl [ONC0003690, 5chloro2deoxycytidine]	55.79%	
CNC(=O)c1ccc(Nc2ncc(C(F)(F)F)c(NCc3nccnc3N(C)S(C)(=O)=O)n2)cc1 [ONC0002028, defactinib]	71.09%	
CCOC(=O)[C@@H](N)CCC(=O)N[C@@H](CSCc1ccccc1)C(=O)N[C@@H](C(=O)OCC)c1ccccc1 [ONC0000839, ezatiostat]	71.7%	
Cn1c(-c2ccccc2)nnc1S(C)(=O)=O [ONC0003665, mdl27531]	82.05%	
Cc1cc(C(=O)O)sc1C(N)C(=O)O (stereo not shown) [ONC0000056, 3matida]	81.23%	
CN1C(=O)C(Cc2c[nH]c3ccccc23)NC1=S (stereo not shown) [ONC0003684, necrostatin1]	40.84%	
CCC[C@H](N[C@H]1CCc2cc(F)cc(F)c2C1)C(=O)Nc1cn(C(C)(C)CNCC(C)(C)C)cn1 [ONC0002442, nirogacestat]	128.8%	
CCOC(=S)SSC(=S)OCC [ONC0002273, dixanthogen]	55.69%	
Cc1cc2c(s1)Nc1ccccc1N=C2N1CCN(C)CC1 [ONC0004243, olanzapine]	89.12%	
CCN(CC)CCOc1ccc(Nc2ncc3cc(-c4c(Cl)cccc4Cl)c(=O)n(C)c3n2)cc1 [ONC0001435, pd166285]	73.8%	
NS(=O)(=O)c1ccc(S(=O)(=O)Nc2cccc3c(Cl)c[nH]c23)cc1 [ONC0005426, indisulam]	79.71%	
O=C1c2ccccc2C(=O)C1c1ccc(Br)cc1 [ONC0004017, bromindione]	66.39%	
NC(=O)CC[C@H](N)C(=O)O [ONC0004823, lglutamine]	90.98%	
COc1cc(N)c(Cl)cc1C(=O)N[C@@H]1CCN(CCCOc2ccc(F)cc2)C[C@@H]1OC (racemic) [ONC0002671, cisapride]	79.76%	
CCn1c(-c2nonc2N)nc2c(C#CC(C)(C)O)ncc(OC[C@H]3CCCNC3)c21 [ONC0004928, gsk690693]	97.5%	
O=S(=O)(O)Oc1ccc(C(c2ccc(OS(=O)(=O)O)cc2)c2ccccn2)cc1 [ONC0004819, sodium picosulfate]	71.74%	

Another view of some results above:
Structure (SMILES) | % viability | % viability (Madurella mycetomatis metabolic activity at 2µM (%))
CC(C)OC(=O)C(C)(C)Oc1ccc(C(=O)c2ccc(Cl)cc2)cc1 [ONC0003204, fenofibrate] | 122.8% | 
OCCOc1ccc(/C(=C(/CCCl)c2ccccc2)c2ccccc2)cc1 [ONC0005170, ospemifene] | 96.53% | 
C=C1CC/C=C(\C)CC[C@@H]2[C@@H]1CC2(C)C [ONC0002179, gcaryophyllene] | 84.29% | 
Cc1c(O)c(=O)n(-c2ccccc2)n1C [ONC0002305, 4hydroxyphenazone] | 52.96% | 
Nc1nc(=O)n([C@H]2C[C@H](O)[C@@H](CO)O2)cc1Cl [ONC0003690, 5chloro2deoxycytidine] | 55.79% | 
CNC(=O)c1ccc(Nc2ncc(C(F)(F)F)c(NCc3nccnc3N(C)S(C)(=O)=O)n2)cc1 [ONC0002028, defactinib] | 71.09% | 
CCOC(=O)[C@@H](N)CCC(=O)N[C@@H](CSCc1ccccc1)C(=O)N[C@@H](C(=O)OCC)c1ccccc1 [ONC0000839, ezatiostat] | 71.7% | 
Cn1c(-c2ccccc2)nnc1S(C)(=O)=O [ONC0003665, mdl27531] | 82.05% | 
Cc1cc(C(=O)O)sc1C(N)C(=O)O (stereo not shown) [ONC0000056, 3matida] | 81.23% | 
CN1C(=O)C(Cc2c[nH]c3ccccc23)NC1=S (stereo not shown) [ONC0003684, necrostatin1] | 40.84% | 
CCC[C@H](N[C@H]1CCc2cc(F)cc(F)c2C1)C(=O)Nc1cn(C(C)(C)CNCC(C)(C)C)cn1 [ONC0002442, nirogacestat] | 128.8% | 
CCOC(=S)SSC(=S)OCC [ONC0002273, dixanthogen] | 55.69% | 
Cc1cc2c(s1)Nc1ccccc1N=C2N1CCN(C)CC1 [ONC0004243, olanzapine] | 89.12% | 
CCN(CC)CCOc1ccc(Nc2ncc3cc(-c4c(Cl)cccc4Cl)c(=O)n(C)c3n2)cc1 [ONC0001435, pd166285] | 73.8% | 
NS(=O)(=O)c1ccc(S(=O)(=O)Nc2cccc3c(Cl)c[nH]c23)cc1 [ONC0005426, indisulam] | 79.71% | 
O=C1c2ccccc2C(=O)C1c1ccc(Br)cc1 [ONC0004017, bromindione] | 66.39% | 
NC(=O)CC[C@H](N)C(=O)O [ONC0004823, lglutamine] | 90.98% | 
CCn1c(-c2nonc2N)nc2c(C#CC(C)(C)O)ncc(OC[C@H]3CCCNC3)c21 [ONC0004928, gsk690693] | 97.5% | 
O=S(=O)(O)Oc1ccc(C(c2ccc(OS(=O)(=O)O)cc2)c2ccccn2)cc1 [ONC0004819, sodium picosulfate] | 71.74% | 

Remaining list, next part:

Structure (SMILES)	% viability	% viability (Madurella mycetomatis metabolic activity at 2µM (%))
COc1cc2c(NC3CCN(C)CC3)nc(N3CCCN(C)CC3)nc2cc1OCCCN(C)C [ONC0000276, unc0224]	85.54%	
CSc1ccc(C(=O)N[C@@H]2CCCC[C@@H]2NC(=O)CNC(=O)c2cc(C(F)(F)F)ccc2NC(=O)NC(C)C)cc1 [ONC0000833, bmsccr222]	73.52%	
CCCN1CCC[C@@H]2Cc3nc(N)ncc3C[C@H]21 [ONC0001950, ly1635022hcl]	76.14%	
O=C(O)c1ccccc1O [ONC0000613, salicylic acid]	77.17%	
O=c1oc2cc(O)ccc2s1 [ONC0002844, tioxolone]	91.28%	
Cc1[nH]nc(C(F)(F)F)c1Cc1sc2c(c1C(=O)N1C[C@](C)(O)CO1)c(=O)n(C)c(=O)n2C(C)C [ONC0002039, azd3965]	59.03%	
CCCCCCCCCCCCOS(=O)(=O)O [ONC0004120, dodecylsulfate]		112%
COc1cc2ncnc(Nc3cccc(Cl)c3)c2cc1OC [ONC0005034, ag1478 tyrphostin ag1478]	64.21%	
CCCCc1ccc2[nH]c(NC(=O)OC)nc2c1 [ONC0002804, parbendazole]	94.34%	
O=C(O)[C@H](CC(=O)N1C[C@H]2CCCC[C@H]2C1)Cc1ccccc1 [ONC0004972, mitiglinide calcium]	100.8%	
c1coc(CNc2ncnc3[nH]cnc23)c1 [ONC0004770, kinetin 6furfuryladenine]	92%	
CS(=O)(=O)c1ccc(-c2nnc(/C=C/c3nnc(-c4ccc(C#N)cc4)o3)n2-c2ccccc2Cl)nc1 [ONC0002082, g007lk]	77.8%	
CCOc1ccc2nc(S(N)(=O)=O)sc2c1 [ONC0004143, ethoxzolamide]	89.88%	
N[C@H](C(=O)O)c1ccc(O)cc1 [ONC0003544, oxfenicine]	86.91%	
C[C@@H]1C[C@H]2[C@@H]3CCC4=CC(=O)C=C[C@]4(C)[C@@]3(Cl)[C@@H](O)C[C@]2(C)[C@@]1(OC(=O)c1ccco1)C(=O)CCl [ONC0004208, mometasone furoate]	101.4%	
CN1CCCN(C(c2ccccc2)c2ccc(Cl)cc2)CC1 (stereo not shown) [ONC0001961, homochlorcyclizine2hcl]	90.66%	
CCOC(=O)[C@H](CCc1ccccc1)N[C@@H](C)C(=O)N1C(=O)N(C)C[C@H]1C(=O)O [ONC0004912, imidapril hcl]	151.6%	
CCOC(=O)c1cnc2c(cnn2CC)c1NN=C(C)C [ONC0001658, etazolate]	80.47%	
COCC1(CO)C(=O)C2CCN1CC2 (stereo not shown) [ONC0000386, apr246]	84.84%	
O=C(O)c1cc(/N=N/c2ccc(S(=O)(=O)Nc3ccccn3)cc2)ccc1O [ONC0000599, sulfasalazine]	109.1%	
O=C(O)c1cc2cc(Cc3cccnc3)ccc2o1 [ONC0005322, furegrelate]	108.8%	

Structure (SMILES)	% viability	% viability (Madurella mycetomatis metabolic activity at 2µM (%))
C#C[C@]1(O)CC[C@H]2[C@@H]3CCC4=CC(=O)CC[C@@H]4[C@H]3C(=C)C[C@@]21CC [ONC0003491, etonogestrel]	53.49%	
c1ccc(-c2oc3ncnc(NC[C@@H]4CCCO4)c3c2-c2ccccc2)cc1 [ONC0000129, aim100]	120.6%	
NC(=O)c1ccc(I)c([N+](=O)[O-])c1 [ONC0004703, iniparib bsi201]	114%	
CC(C)N(CCCCOCC(=O)NS(C)(=O)=O)c1cnc(-c2ccccc2)c(-c2ccccc2)n1 [ONC0001764, selexipag]	94.67%	
CCOC(=O)C1CSC(Cc2ccc(OCc3ccc([N+](=O)[O-])cc3)cc2)N1 (stereo not shown) [ONC0004441, sn6]	158%	
CC(C)C[C@H](NC(=O)CN(C)C(=O)[C@H](Cc1ccccc1)NC(=O)[C@H](Cc1ccccc1)NC(=O)[C@H](CCC(N)=O)NC(=O)[C@H](CCC(N)=O)NC(=O)[C@@H]1CCCN1C(=O)[C@H](CCCCN)NC(=O)[C@@H]1CCCN1C(=O)[C@@H](N)CCCNC(=N)N)C(=O)N[C@@H](CCS(C)(=O)=O)C(N)=O [ONC0003648, sar9meto211substance p]	64.96%	
CCc1cccc(CC)c1NC(=O)CN(CC(=O)O)CC(=O)O [ONC0002329, etifenin]	55.77%	
C/C(=C\C(=O)OCCCCCCCCC(=O)O)C[C@@H]1OC[C@H](C[C@@H]2O[C@H]2[C@@H](C)[C@H](C)O)[C@@H](O)[C@H]1O [ONC0001840, mupirocin]	91.16%	
N#C/C(=C\c1ccc(O)c(O)c1)C(=O)NCCCc1ccccc1 [ONC0003345, ag555]	91.13%	
CC1CCN=C(N)S1 (stereo not shown) [ONC0000196, aminomethyltransferase]	85.97%	
Nc1cc(N2CCCCC2)nc(N)[n+]1[O-] [ONC0000367, minoxidil]	72.4%	
C=CCN1CC[C@]23c4c5ccc(O)c4O[C@H]2[C@@H](OCCOCCOCCOCCOCCOCCOCCOC)CC[C@@]3(O)[C@H]1C5 [ONC0002095, naloxegol oxalate]	65.87%	
C[N+](C)(C)CC(O)CC(=O)O (stereo not drawn) [ONC0003265, carnitine dl hydrochloride]	68.88%	
C[C@]12CCC(=O)C=C1[C@@H]1C[C@@H]1[C@H]1[C@@H]3[C@@H]4C[C@@H]4[C@@]4(CCC(=O)O4)[C@@]3(C)CC[C@@H]12 [ONC0002429, drospirenone]	86.56%	
O=C(Nc1cccc2cccnc12)c1ccc(N2C(=O)[C@@H]3[C@H](C2=O)[C@H]2C=C[C@@H]3C2)cc1 [ONC0001412, exoiwr1]	97.11%	
COc1ccc2[nH]c3c(-c4cccc5ccccc45)nccc3c2c1 [ONC0003161, sp141]	97.8%	
N=C(N)c1ccc(/N=N/Nc2ccc(C(=N)N)cc2)cc1 [ONC0004027, diminazene aceturate]	81.99%	
CCN(CC)C(=O)N[C@H]1CC2c3cccc4[nH]cc(c34)CC2N(C)C1 (stereo partly shown) [ONC0002019, terguride]	81.88%	
O=C(O)/C=C1\CCCc2ccccc2C1O (stereo not shown) [ONC0000167, ncs382]	89.17%	
